Measured values taken from article PMC9018821.
For at least one entry, the source does not settle the construct or the ends of the probe. For some of these results: Whether high values mean tight binding is not given here for every scale.

The chains behind the UniProt entries cited, without tags or fusion partners. Residues count along the entry.
UniProt O09100, 289-480 R398W: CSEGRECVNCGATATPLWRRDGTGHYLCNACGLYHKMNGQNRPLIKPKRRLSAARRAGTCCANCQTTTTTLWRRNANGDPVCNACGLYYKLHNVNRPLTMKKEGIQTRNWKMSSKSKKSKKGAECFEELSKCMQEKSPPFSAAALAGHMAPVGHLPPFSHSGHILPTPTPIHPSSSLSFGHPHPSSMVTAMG
UniProt O09100, 289-480 T354M: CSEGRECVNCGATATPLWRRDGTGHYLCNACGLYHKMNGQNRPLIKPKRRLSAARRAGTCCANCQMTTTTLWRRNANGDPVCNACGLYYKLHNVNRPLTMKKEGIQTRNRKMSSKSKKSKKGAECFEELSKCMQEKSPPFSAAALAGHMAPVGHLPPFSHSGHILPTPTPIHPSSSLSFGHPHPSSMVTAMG
UniProt O09100, 289-480: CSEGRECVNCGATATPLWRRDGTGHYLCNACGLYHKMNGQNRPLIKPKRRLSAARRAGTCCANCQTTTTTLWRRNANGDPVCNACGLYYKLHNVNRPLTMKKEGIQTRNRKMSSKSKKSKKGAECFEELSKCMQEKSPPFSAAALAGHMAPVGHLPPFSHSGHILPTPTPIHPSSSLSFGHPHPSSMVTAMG

What was measured:
Test in all cases: SPR
[1] = target: G2R398W (mouse) (UniProt O09100); conditions: text says KD 'lower', binding described as weak, Biacore X100, Sensor chip SA, 1000 RU biotinylated dsDNA, blank reference cell, pH and temperature not stated, recombinant protein, residues 289-480, label: 5'-biotin on sense strand, scale: fold weaker affinity than G2WT
[2] = target: G2T354M (mouse) (UniProt O09100); conditions: text says KD 'lower', binding described as weak, Biacore X100, Sensor chip SA, 1000 RU biotinylated dsDNA, blank reference cell, pH and temperature not stated, recombinant protein, residues 289-480, label: 5'-biotin on sense strand, scale: fold weaker affinity than G2WT
[3] = tested on: G2WT + G2R398W; conditions: 1:1 mixture, Biacore X100, Sensor chip SA, 1000 RU biotinylated dsDNA, blank reference cell, pH and temperature not stated, recombinant protein, label: 5'-biotin on sense strand
[4] = target: G2WT (mouse) (UniProt O09100); conditions: not in material, Biacore X100, Sensor chip SA, 1000 RU biotinylated dsDNA, blank reference cell, pH and temperature not stated, recombinant protein, residues 289-480, label: 5'-biotin on sense strand
[5] = tested on: G2WT + G2T354M; conditions: 1:1 mixture, Biacore X100, Sensor chip SA, 1000 RU biotinylated dsDNA, blank reference cell, pH and temperature not stated, recombinant protein, label: 5'-biotin on sense strand

Row | Sequence | binding signal [1] | binding signal [2] | binding signal (fold increase of KD1 vs G2WT homodimer) ([3]; first phase, ka1 2.3-fold down, kd1 1.7-fold up) | binding result ([4]; bivalent two-phase binding, KD in figure table) | binding signal (fold increase of KD1 vs G2WT homodimer) ([5]; first phase, ka1 1.3-fold down, kd1 2-fold up) | binding signal (fold KD difference from G2WT alone) ([3]; monovalent fit) | binding result ([4]; KD in Fig. 7b table, monovalent fit) | binding signal (fold KD difference from G2WT alone) ([5]; monovalent fit)
1 | GCGAGATAAGATAAGGCCTTG (double strand) [tandem GATA motif 21-mer] | 8 | 2.5 | 4 | binds | 3 |  |  | 
2 | GCGCTCAGAGATAAGGCCTTG (double strand) [single GATA motif 21-mer] | 10 | 4 |  |  |  | < 2 | binds | < 2
